The results in this text go back to the supplement of paper PMC6411743.

Protein sequences, listed by entry. Tags and fused reporters are not part of them. Lines headed by an entry give the natural chain unless they say otherwise; changes in a name come on top.
UniProt Q9ULW0, whole entry: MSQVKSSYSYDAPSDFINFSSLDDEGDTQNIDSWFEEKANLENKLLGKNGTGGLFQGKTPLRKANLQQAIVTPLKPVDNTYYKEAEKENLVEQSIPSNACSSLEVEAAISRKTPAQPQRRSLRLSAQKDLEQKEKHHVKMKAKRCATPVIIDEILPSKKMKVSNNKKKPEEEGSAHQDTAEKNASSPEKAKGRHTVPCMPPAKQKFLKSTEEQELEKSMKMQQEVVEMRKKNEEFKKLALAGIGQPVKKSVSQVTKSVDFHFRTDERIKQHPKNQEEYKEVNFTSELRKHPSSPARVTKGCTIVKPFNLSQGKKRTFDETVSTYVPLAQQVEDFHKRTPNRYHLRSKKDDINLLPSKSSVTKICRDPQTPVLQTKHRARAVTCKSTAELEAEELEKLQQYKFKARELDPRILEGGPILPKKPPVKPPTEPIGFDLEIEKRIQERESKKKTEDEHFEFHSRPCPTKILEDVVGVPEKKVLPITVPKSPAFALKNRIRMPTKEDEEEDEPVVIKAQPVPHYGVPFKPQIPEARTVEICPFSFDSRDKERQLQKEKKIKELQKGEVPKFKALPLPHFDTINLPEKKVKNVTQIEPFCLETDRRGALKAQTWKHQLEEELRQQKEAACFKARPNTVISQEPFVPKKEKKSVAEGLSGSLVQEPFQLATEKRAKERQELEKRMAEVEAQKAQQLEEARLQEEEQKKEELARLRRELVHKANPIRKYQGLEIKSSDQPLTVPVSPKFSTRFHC
UniProt Q9UNZ2: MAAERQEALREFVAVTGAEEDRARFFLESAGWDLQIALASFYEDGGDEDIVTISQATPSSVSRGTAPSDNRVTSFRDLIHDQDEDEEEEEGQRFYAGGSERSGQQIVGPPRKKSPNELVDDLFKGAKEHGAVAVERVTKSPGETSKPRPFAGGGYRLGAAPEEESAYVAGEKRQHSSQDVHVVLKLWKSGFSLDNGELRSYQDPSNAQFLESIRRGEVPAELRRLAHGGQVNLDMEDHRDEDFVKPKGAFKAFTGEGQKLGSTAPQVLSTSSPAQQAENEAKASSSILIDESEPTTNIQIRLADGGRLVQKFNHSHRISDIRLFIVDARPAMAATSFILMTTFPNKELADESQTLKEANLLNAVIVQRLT
UniProt Q9Y282: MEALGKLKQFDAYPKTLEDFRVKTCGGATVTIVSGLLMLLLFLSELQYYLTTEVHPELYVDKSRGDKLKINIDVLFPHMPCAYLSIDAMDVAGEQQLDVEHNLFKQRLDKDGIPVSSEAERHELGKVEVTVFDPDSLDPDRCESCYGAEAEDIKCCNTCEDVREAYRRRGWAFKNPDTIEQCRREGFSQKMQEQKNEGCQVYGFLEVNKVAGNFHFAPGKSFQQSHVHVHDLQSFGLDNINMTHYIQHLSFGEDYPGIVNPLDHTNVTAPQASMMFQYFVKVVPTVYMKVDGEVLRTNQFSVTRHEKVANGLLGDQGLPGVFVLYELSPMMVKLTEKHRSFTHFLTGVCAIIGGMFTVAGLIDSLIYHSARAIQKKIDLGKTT
UniProt Q9UJX6, whole entry: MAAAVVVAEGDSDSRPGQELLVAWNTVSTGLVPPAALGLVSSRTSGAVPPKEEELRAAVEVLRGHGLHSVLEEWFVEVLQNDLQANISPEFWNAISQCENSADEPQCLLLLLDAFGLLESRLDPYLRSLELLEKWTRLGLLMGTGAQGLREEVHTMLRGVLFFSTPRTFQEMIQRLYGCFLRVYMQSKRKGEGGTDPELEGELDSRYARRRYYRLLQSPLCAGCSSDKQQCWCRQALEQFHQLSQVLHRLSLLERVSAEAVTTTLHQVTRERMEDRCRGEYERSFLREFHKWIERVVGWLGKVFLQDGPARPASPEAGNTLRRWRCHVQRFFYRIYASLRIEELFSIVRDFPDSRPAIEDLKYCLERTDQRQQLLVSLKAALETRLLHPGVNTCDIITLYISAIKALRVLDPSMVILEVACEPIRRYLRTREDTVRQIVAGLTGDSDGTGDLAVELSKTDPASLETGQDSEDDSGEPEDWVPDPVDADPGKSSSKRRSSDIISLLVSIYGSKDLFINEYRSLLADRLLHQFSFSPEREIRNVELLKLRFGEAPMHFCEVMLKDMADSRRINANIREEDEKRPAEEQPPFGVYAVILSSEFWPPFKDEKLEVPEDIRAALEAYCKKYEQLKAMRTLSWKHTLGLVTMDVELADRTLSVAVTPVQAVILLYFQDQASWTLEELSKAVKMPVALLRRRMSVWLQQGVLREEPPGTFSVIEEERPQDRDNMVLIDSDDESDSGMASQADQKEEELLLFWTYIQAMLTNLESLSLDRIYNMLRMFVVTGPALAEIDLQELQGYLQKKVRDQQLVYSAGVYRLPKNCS
UniProt Q9UHD2: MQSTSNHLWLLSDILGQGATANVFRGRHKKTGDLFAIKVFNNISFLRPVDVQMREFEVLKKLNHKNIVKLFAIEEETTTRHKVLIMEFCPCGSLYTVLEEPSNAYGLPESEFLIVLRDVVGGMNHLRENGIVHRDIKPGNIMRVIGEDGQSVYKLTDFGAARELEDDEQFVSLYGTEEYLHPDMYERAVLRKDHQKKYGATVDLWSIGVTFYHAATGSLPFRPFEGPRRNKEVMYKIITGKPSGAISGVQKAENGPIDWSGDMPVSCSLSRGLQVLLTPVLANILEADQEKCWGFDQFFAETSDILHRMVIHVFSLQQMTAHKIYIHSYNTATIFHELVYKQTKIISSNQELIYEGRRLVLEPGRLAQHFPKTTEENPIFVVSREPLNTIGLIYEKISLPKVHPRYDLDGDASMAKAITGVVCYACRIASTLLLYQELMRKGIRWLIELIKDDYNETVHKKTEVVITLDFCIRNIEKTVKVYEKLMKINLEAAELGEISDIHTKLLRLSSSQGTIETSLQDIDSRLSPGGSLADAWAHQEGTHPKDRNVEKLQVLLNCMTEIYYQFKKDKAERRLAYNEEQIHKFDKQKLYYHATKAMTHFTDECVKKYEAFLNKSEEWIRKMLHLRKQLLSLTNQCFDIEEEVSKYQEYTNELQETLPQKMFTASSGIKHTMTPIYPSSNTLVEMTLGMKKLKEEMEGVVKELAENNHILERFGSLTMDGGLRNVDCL
UniProt Q9ULR0: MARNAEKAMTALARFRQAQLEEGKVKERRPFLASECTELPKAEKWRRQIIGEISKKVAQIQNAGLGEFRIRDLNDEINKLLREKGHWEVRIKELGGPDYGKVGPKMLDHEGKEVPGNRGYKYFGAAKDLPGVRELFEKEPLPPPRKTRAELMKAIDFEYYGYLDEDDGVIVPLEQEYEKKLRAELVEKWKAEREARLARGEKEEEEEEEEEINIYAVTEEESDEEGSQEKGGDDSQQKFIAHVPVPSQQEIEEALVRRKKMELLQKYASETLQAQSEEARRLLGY
UniProt Q9Y2Q3: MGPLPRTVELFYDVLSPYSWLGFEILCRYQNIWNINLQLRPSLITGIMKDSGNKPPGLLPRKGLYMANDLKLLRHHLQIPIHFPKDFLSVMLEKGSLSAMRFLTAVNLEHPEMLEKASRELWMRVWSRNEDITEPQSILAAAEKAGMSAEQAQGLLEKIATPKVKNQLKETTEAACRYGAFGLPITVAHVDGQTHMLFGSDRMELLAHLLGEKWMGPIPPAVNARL
UniProt Q9UDY8: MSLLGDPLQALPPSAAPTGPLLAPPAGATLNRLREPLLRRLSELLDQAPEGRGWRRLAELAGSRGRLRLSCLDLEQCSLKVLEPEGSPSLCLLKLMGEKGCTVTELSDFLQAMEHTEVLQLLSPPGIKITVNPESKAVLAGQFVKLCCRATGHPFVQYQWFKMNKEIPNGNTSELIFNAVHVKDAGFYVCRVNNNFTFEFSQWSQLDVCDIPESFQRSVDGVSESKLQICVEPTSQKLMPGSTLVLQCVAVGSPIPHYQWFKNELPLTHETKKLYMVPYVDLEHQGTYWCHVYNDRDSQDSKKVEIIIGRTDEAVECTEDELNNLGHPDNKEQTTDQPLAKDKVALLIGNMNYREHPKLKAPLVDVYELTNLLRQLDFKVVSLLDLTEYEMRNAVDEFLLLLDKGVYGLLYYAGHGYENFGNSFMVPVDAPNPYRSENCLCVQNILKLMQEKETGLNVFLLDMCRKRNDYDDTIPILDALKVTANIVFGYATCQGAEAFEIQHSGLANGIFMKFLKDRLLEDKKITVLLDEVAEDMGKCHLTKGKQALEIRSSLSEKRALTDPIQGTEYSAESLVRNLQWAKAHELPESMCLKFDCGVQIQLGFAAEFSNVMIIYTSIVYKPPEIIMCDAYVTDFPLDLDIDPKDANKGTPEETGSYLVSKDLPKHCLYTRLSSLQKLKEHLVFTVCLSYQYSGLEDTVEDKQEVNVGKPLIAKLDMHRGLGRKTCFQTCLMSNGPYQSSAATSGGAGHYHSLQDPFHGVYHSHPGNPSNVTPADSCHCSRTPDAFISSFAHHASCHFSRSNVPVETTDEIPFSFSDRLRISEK
UniProt Q9ULC3: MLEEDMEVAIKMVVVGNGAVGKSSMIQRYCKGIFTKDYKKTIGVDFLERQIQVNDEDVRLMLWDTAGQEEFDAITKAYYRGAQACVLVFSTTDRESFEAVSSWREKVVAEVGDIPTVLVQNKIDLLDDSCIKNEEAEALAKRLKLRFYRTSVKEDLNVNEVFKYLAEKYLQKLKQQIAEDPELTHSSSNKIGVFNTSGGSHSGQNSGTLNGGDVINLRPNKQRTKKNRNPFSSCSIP
UniProt Q9UHY7: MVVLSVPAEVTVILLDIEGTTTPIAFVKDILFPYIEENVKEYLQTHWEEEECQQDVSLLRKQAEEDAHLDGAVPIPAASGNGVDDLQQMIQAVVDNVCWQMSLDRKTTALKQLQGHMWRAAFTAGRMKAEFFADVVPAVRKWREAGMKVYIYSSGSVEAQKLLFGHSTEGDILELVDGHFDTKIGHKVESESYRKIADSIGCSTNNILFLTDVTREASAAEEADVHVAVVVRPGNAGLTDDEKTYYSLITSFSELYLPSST
UniProt Q9UMY1: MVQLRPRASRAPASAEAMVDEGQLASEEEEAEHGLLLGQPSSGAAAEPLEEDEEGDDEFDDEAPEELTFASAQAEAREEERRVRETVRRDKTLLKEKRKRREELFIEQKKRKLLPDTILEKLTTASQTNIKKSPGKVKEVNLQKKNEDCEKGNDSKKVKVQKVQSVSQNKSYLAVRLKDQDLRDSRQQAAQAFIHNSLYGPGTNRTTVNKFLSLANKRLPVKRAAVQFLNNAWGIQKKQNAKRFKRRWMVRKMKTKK
UniProt Q9UJZ1: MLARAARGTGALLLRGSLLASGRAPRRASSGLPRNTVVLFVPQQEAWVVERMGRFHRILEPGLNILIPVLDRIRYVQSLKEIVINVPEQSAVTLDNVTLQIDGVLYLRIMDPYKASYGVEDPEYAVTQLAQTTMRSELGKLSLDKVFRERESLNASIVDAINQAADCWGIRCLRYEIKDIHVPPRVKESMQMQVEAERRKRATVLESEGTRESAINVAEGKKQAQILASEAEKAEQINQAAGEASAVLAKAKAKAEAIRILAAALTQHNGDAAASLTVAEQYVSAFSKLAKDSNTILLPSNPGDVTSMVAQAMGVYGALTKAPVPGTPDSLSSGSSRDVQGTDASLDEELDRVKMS
UniProt Q9UI12, whole entry: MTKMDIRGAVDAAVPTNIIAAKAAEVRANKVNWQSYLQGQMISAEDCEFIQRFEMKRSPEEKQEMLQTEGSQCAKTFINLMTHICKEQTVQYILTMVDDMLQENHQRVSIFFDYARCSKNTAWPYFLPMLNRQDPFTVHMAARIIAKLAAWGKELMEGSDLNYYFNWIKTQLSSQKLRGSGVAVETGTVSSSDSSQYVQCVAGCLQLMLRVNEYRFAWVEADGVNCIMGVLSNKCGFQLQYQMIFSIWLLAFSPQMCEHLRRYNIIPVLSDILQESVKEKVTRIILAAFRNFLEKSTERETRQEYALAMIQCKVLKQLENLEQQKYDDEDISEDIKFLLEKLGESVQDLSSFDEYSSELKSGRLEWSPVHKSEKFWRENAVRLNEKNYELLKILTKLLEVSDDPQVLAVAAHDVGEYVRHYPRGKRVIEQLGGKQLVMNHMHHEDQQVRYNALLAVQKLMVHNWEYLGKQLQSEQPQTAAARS
UniProt Q9Y228: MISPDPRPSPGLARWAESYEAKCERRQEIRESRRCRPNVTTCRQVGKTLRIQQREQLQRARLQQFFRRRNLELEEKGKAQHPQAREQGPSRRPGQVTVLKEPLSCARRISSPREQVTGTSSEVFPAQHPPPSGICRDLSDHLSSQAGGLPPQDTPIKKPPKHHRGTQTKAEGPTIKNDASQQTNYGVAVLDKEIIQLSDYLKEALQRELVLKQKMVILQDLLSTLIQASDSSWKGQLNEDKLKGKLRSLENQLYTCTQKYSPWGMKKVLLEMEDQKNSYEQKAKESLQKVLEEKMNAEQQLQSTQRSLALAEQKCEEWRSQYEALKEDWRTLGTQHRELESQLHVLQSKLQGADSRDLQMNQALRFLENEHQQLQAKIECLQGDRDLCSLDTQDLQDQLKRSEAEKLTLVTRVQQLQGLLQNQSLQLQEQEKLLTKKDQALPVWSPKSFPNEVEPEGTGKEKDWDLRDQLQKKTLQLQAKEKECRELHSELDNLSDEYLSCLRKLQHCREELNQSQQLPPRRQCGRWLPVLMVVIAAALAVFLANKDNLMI

± gives the standard deviation of the averaged measurements. Only a part is listed here, and it is no random draw.

Compound in one assay: Nc1ncnc2c1ncn2[C@@H]1O[C@H](COP(=O)(O)OP(=O)(O)NP(=O)(O)O)[C@@H](O)[C@H]1O [adenylyl imidodiphosphate]
The assay can be described thus: NP40-soluble protein abundance relative to vehicle (solubility fold change) (ratio); higher = more soluble protein in presence of AMP-PNP. As to conditions: concentration: 6mM. The gist of the method: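 In three independent experiments, Jurkat crude lysate made by Dounce homogenisation was treated for 10 min at room temperature and then 3 min at 37 °C with eight concentrations ranging from 0.1 to 10 mM. It was then solubilised with 0.8% NP40 plus benzonase for 60 min at 4 °C and ultracentrifuged. The supernatant was TMT-labelled for LC-MS/MS, and each value is the fold change against the detergent-processed vehicle for the same replicate, using vsn-normalised intensities.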
With UniProt Q9UBS8 and related entries, the NP40-soluble protein abundance was 0.981 ± 0.036.

TPX2 (UniProt Q9ULW0): the NP40-soluble protein abundance was determined as 1.27 ± 0.049.

NSFL1C (UniProt Q9UNZ2): the NP40-soluble protein abundance was found to be 0.954 ± 0.036.

As to AASS (UniProt Q9UDR5), the NP40-soluble protein abundance was determined as 0.947 ± 0.021.

As for GINS2 (UniProt Q9Y248), the NP40-soluble protein abundance turned out to be 0.988 ± 0.041.

Take UniProt Q9UNF0 and related entries: the NP40-soluble protein abundance was 1.032 ± 0.008.

Turning to GTF3C4 (UniProt Q9UKN8), the NP40-soluble protein abundance amounted to 0.989 ± 0.031.

With UniProt Q9Y282 and related entries, the NP40-soluble protein abundance worked out at 1.01 ± 0.015.

UniProt Q9Y320 and related entries: the NP40-soluble protein abundance came to 0.952 ± 0.048.

For the target UniProt Q9UJX6 and related entries, the NP40-soluble protein abundance was 0.956 ± 0.028.

Take NDUFA12 (UniProt Q9UI09): the NP40-soluble protein abundance came out at 1.01 ± 0.037.

Regarding UniProt Q9UNS1 and related entries, the NP40-soluble protein abundance came to 0.932 ± 0.024.

With TBK1 (UniProt Q9UHD2), the NP40-soluble protein abundance came out at 0.953 ± 0.038.

Regarding SMC3 (UniProt Q9UQE7), the NP40-soluble protein abundance turned out to be 1.03 ± 0.034.

Consider UniProt Q9ULR0 and related entries, for which the NP40-soluble protein abundance was 1 ± 0.034.

As for UniProt Q9UJX5 and related entries, the NP40-soluble protein abundance amounted to 0.9776 ± 0.0087.

With UniProt Q9UP83 and related entries, the NP40-soluble protein abundance amounted to 0.963 ± 0.047.

Regarding UniProt Q9UHW5 and related entries, the NP40-soluble protein abundance came out at 0.974 ± 0.03.

For UniProt Q9ULJ3 and related entries, the NP40-soluble protein abundance turned out to be 0.964 ± 0.02.

UniProt Q9ULT8 and related entries: the NP40-soluble protein abundance was determined as 0.975 ± 0.03.

For the target GSTK1 (UniProt Q9Y2Q3), the NP40-soluble protein abundance came out at 1.04 ± 0.081.

Take UniProt Q9UDY8 and related entries: the NP40-soluble protein abundance is 0.908 ± 0.014.

For UniProt Q9UMS0 and related entries, the NP40-soluble protein abundance is 1.02 ± 0.033.

Turning to NRBP1 (UniProt Q9UHY1), the NP40-soluble protein abundance came to 1.01 ± 0.012.

RAB23 (UniProt Q9ULC3): the NP40-soluble protein abundance is 1.01 ± 0.029.

For the target ENOPH1 (UniProt Q9UHY7), the NP40-soluble protein abundance came out at 1.02 ± 0.039.

Consider UniProt Q9UPN7, for which the NP40-soluble protein abundance amounted to 0.9756 ± 0.0079.

Consider NOL7 (UniProt Q9UMY1), for which the NP40-soluble protein abundance is 1.05 ± 0.026.

Turning to UniProt Q9UJZ1 and related entries, the NP40-soluble protein abundance worked out at 0.951 ± 0.09.

Regarding UniProt Q9UI12 and related entries, the NP40-soluble protein abundance was found to be 0.987 ± 0.01.

Turning to UniProt Q9UQ49 and related entries, the NP40-soluble protein abundance was found to be 1.02 ± 0.031.

Regarding TRAF3IP3 (UniProt Q9Y228), the NP40-soluble protein abundance stood at 0.956 ± 0.031.

Consider UniProt Q9Y2Z2 and related entries, for which the NP40-soluble protein abundance is 0.961 ± 0.011.

As for PACSIN3 (UniProt Q9UKS6), the NP40-soluble protein abundance stood at 1.1 ± 0.034.

Consider NOB1 (UniProt Q9ULX3), for which the NP40-soluble protein abundance was found to be 0.966 ± 0.023.

With MRPS28 (UniProt Q9Y2Q9), the NP40-soluble protein abundance came out at 0.936 ± 0.095.

The same assay, now with this note: concentration: 8mM.
In the case of UniProt Q9UBS8 and related entries, the NP40-soluble protein abundance was determined as 0.975 ± 0.015.

Regarding TPX2 (UniProt Q9ULW0), the NP40-soluble protein abundance was 1.32 ± 0.072.

In the case of NSFL1C (UniProt Q9UNZ2), the NP40-soluble protein abundance is 0.941 ± 0.011.

As for AASS (UniProt Q9UDR5), the NP40-soluble protein abundance worked out at 0.979 ± 0.01.

Turning to GINS2 (UniProt Q9Y248), the NP40-soluble protein abundance amounted to 0.972 ± 0.037.

Turning to UniProt Q9UNF0 and related entries, the NP40-soluble protein abundance came to 1.03 ± 0.029.

Regarding GTF3C4 (UniProt Q9UKN8), the NP40-soluble protein abundance was found to be 0.999 ± 0.06.

Take UniProt Q9Y282 and related entries: the NP40-soluble protein abundance is 0.999 ± 0.056.

Turning to UniProt Q9Y320 and related entries, the NP40-soluble protein abundance is 0.962 ± 0.04.

For UniProt Q9UJX6 and related entries, the NP40-soluble protein abundance is 0.9697 ± 0.0046.

In the case of NDUFA12 (UniProt Q9UI09), the NP40-soluble protein abundance is 1.05 ± 0.031.

Consider UniProt Q9UNS1 and related entries, for which the NP40-soluble protein abundance is 0.911 ± 0.05.

Regarding TBK1 (UniProt Q9UHD2), the NP40-soluble protein abundance worked out at 0.959 ± 0.027.

As for SMC3 (UniProt Q9UQE7), the NP40-soluble protein abundance came out at 1.01 ± 0.039.

In the case of UniProt Q9ULR0 and related entries, the NP40-soluble protein abundance was 1.01 ± 0.044.

Regarding UniProt Q9UJX5 and related entries, the NP40-soluble protein abundance amounted to 0.977 ± 0.024.

For the target UniProt Q9UP83 and related entries, the NP40-soluble protein abundance is 0.96 ± 0.061.

Consider UniProt Q9UHW5 and related entries, for which the NP40-soluble protein abundance amounted to 0.98 ± 0.02.

For UniProt Q9ULJ3 and related entries, the NP40-soluble protein abundance amounted to 0.941 ± 0.033.

As for UniProt Q9ULT8 and related entries, the NP40-soluble protein abundance came to 0.992 ± 0.039.

As for GSTK1 (UniProt Q9Y2Q3), the NP40-soluble protein abundance was determined as 1.09 ± 0.049.

With UniProt Q9UDY8 and related entries, the NP40-soluble protein abundance came to 0.945 ± 0.016.

For the target UniProt Q9UMS0 and related entries, the NP40-soluble protein abundance was determined as 0.992 ± 0.048.

As to NRBP1 (UniProt Q9UHY1), the NP40-soluble protein abundance came out at 1 ± 0.025.

In the case of RAB23 (UniProt Q9ULC3), the NP40-soluble protein abundance stood at 1.03 ± 0.044.

Turning to ENOPH1 (UniProt Q9UHY7), the NP40-soluble protein abundance is 1.05 ± 0.031.

Regarding UniProt Q9UPN7, the NP40-soluble protein abundance was determined as 0.975 ± 0.035.

With NOL7 (UniProt Q9UMY1), the NP40-soluble protein abundance was 1.04 ± 0.024.

Take UniProt Q9UJZ1 and related entries: the NP40-soluble protein abundance was 0.889 ± 0.072.

As for UniProt Q9UI12 and related entries, the NP40-soluble protein abundance was 0.973 ± 0.014.

On to UniProt Q9UQ49 and related entries, for which the NP40-soluble protein abundance amounted to 1.01 ± 0.024.

As for TRAF3IP3 (UniProt Q9Y228), the NP40-soluble protein abundance was determined as 0.977 ± 0.074.

As to UniProt Q9Y2Z2 and related entries, the NP40-soluble protein abundance worked out at 0.959 ± 0.0056.

On to PACSIN3 (UniProt Q9UKS6), for which the NP40-soluble protein abundance stood at 1.09 ± 0.04.

As to NOB1 (UniProt Q9ULX3), the NP40-soluble protein abundance stood at 1 ± 0.043.

With MRPS28 (UniProt Q9Y2Q9), the NP40-soluble protein abundance is 0.92 ± 0.073.

Staying with this assay, now noted: concentration: 10mM.
Turning to UniProt Q9UBS8 and related entries, the NP40-soluble protein abundance is 0.972 ± 0.079.

For the target TPX2 (UniProt Q9ULW0), the NP40-soluble protein abundance is 1.39 ± 0.049.

In the case of NSFL1C (UniProt Q9UNZ2), the NP40-soluble protein abundance is 0.9341 ± 0.005.

In the case of AASS (UniProt Q9UDR5), the NP40-soluble protein abundance was found to be 0.939 ± 0.027.

GINS2 (UniProt Q9Y248): the NP40-soluble protein abundance was 0.969 ± 0.034.

Take UniProt Q9UNF0 and related entries: the NP40-soluble protein abundance amounted to 1.04 ± 0.043.

As for GTF3C4 (UniProt Q9UKN8), the NP40-soluble protein abundance is 1 ± 0.032.

Take UniProt Q9Y282 and related entries: the NP40-soluble protein abundance turned out to be 1.02 ± 0.029.

As to UniProt Q9Y320 and related entries, the NP40-soluble protein abundance came to 0.95 ± 0.039.

As for UniProt Q9UJX6 and related entries, the NP40-soluble protein abundance was 0.944 ± 0.017.

For NDUFA12 (UniProt Q9UI09), the NP40-soluble protein abundance worked out at 1.02 ± 0.019.

As for UniProt Q9UNS1 and related entries, the NP40-soluble protein abundance turned out to be 0.916 ± 0.051.

As to TBK1 (UniProt Q9UHD2), the NP40-soluble protein abundance was determined as 0.938 ± 0.018.

SMC3 (UniProt Q9UQE7): the NP40-soluble protein abundance stood at 1.05 ± 0.062.

As for UniProt Q9ULR0 and related entries, the NP40-soluble protein abundance came out at 1 ± 0.037.

Turning to UniProt Q9UJX5 and related entries, the NP40-soluble protein abundance turned out to be 0.98 ± 0.032.

Regarding UniProt Q9UP83 and related entries, the NP40-soluble protein abundance amounted to 0.98 ± 0.071.

Turning to UniProt Q9UHW5 and related entries, the NP40-soluble protein abundance worked out at 0.967 ± 0.016.

With UniProt Q9ULJ3 and related entries, the NP40-soluble protein abundance came out at 0.954 ± 0.025.

Regarding UniProt Q9ULT8 and related entries, the NP40-soluble protein abundance is 0.996 ± 0.011.

For the target GSTK1 (UniProt Q9Y2Q3), the NP40-soluble protein abundance was determined as 1.05 ± 0.062.

For the target UniProt Q9UDY8 and related entries, the NP40-soluble protein abundance stood at 0.911 ± 0.017.

On to UniProt Q9UMS0 and related entries, for which the NP40-soluble protein abundance amounted to 0.987 ± 0.079.

For the target NRBP1 (UniProt Q9UHY1), the NP40-soluble protein abundance is 1.02 ± 0.036.

Consider RAB23 (UniProt Q9ULC3), for which the NP40-soluble protein abundance stood at 1 ± 0.018.

For ENOPH1 (UniProt Q9UHY7), the NP40-soluble protein abundance is 1.06 ± 0.067.

Consider UniProt Q9UPN7, for which the NP40-soluble protein abundance came to 0.956 ± 0.025.

On to NOL7 (UniProt Q9UMY1), for which the NP40-soluble protein abundance was determined as 1.05 ± 0.019.

On to UniProt Q9UJZ1 and related entries, for which the NP40-soluble protein abundance amounted to 0.939 ± 0.11.

On to UniProt Q9UI12 and related entries, for which the NP40-soluble protein abundance was determined as 0.9838 ± 0.0093.

Take UniProt Q9UQ49 and related entries: the NP40-soluble protein abundance stood at 1.01 ± 0.017.

For the target TRAF3IP3 (UniProt Q9Y228), the NP40-soluble protein abundance was determined as 0.969 ± 0.046.

Turning to UniProt Q9Y2Z2 and related entries, the NP40-soluble protein abundance stood at 0.951 ± 0.016.

With PACSIN3 (UniProt Q9UKS6), the NP40-soluble protein abundance stood at 1.08 ± 0.023.

As for NOB1 (UniProt Q9ULX3), the NP40-soluble protein abundance came out at 1 ± 0.047.

On to MRPS28 (UniProt Q9Y2Q9), for which the NP40-soluble protein abundance came out at 0.93 ± 0.11.
